Source: the supplement of paper PMC10849652
Some of the results follow.

Sequences of proteins named here, by UniProt entry; tags and fusion partners are left off. A change or cut given only in a name is not applied to a line headed by its entry.
UniProt Q9Y3T6: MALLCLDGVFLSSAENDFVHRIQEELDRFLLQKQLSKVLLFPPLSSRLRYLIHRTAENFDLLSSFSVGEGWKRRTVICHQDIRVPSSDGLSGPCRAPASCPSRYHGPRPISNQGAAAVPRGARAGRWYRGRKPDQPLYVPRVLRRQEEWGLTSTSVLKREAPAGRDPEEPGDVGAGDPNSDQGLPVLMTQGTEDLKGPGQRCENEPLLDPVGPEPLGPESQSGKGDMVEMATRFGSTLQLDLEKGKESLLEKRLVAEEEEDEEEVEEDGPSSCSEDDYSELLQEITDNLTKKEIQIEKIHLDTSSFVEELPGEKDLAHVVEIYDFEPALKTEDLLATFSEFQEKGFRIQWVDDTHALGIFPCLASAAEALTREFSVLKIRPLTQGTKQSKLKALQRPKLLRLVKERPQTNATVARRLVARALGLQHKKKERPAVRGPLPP
UniProt Q7Z7A4: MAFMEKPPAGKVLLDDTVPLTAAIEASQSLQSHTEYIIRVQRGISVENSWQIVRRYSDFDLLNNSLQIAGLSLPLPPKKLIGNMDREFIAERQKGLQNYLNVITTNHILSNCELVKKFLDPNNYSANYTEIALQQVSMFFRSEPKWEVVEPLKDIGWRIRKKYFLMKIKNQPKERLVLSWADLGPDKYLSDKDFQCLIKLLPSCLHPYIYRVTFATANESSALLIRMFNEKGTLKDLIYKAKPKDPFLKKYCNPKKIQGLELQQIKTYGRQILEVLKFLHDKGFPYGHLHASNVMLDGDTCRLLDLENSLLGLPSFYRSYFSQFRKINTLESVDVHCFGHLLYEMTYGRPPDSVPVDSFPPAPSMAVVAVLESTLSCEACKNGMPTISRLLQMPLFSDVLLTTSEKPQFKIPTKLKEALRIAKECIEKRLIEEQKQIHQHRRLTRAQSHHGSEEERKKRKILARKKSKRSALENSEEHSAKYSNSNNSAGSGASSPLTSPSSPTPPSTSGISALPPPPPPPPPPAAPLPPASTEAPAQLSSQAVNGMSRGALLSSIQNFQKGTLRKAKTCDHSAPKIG
UniProt Q12974: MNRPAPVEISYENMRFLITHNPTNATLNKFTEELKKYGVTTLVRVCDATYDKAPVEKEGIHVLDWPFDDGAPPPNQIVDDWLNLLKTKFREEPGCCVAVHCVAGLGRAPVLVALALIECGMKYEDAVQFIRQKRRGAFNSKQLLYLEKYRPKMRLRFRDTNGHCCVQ
UniProt Q9Y606: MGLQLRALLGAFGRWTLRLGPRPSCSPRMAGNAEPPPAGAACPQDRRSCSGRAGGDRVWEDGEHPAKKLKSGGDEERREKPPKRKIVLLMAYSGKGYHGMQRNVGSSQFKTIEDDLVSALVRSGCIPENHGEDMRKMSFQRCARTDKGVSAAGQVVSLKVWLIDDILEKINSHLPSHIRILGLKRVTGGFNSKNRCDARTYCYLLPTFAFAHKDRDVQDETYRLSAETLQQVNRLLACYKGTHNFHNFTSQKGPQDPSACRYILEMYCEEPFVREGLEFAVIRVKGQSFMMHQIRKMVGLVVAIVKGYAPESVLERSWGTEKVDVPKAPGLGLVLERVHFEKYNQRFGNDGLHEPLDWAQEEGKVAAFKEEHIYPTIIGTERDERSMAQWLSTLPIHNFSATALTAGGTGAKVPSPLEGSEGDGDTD
UniProt P25788: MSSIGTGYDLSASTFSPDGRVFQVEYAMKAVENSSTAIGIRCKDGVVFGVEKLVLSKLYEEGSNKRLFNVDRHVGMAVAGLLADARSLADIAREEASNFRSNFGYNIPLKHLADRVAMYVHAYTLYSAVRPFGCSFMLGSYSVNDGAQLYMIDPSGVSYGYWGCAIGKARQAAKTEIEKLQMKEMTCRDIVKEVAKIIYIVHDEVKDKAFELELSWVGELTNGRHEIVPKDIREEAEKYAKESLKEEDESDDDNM
UniProt P17706: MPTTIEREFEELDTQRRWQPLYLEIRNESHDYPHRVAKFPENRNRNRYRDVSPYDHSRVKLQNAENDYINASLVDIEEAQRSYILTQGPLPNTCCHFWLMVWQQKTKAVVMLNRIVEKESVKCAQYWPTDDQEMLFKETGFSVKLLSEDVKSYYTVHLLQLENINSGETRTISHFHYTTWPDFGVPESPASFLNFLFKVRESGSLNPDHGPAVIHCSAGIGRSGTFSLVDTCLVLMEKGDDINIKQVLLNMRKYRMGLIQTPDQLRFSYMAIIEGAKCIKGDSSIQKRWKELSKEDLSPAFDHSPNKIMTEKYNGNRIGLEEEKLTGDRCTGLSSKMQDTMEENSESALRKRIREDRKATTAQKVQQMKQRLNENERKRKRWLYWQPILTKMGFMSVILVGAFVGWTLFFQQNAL
UniProt O00233: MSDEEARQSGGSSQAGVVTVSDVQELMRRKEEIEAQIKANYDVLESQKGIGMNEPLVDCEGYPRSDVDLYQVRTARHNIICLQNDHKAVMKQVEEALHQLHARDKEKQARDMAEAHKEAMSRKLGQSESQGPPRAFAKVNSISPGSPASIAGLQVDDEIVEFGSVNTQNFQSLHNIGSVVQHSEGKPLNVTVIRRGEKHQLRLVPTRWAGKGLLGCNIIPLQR
UniProt Q8NDX1: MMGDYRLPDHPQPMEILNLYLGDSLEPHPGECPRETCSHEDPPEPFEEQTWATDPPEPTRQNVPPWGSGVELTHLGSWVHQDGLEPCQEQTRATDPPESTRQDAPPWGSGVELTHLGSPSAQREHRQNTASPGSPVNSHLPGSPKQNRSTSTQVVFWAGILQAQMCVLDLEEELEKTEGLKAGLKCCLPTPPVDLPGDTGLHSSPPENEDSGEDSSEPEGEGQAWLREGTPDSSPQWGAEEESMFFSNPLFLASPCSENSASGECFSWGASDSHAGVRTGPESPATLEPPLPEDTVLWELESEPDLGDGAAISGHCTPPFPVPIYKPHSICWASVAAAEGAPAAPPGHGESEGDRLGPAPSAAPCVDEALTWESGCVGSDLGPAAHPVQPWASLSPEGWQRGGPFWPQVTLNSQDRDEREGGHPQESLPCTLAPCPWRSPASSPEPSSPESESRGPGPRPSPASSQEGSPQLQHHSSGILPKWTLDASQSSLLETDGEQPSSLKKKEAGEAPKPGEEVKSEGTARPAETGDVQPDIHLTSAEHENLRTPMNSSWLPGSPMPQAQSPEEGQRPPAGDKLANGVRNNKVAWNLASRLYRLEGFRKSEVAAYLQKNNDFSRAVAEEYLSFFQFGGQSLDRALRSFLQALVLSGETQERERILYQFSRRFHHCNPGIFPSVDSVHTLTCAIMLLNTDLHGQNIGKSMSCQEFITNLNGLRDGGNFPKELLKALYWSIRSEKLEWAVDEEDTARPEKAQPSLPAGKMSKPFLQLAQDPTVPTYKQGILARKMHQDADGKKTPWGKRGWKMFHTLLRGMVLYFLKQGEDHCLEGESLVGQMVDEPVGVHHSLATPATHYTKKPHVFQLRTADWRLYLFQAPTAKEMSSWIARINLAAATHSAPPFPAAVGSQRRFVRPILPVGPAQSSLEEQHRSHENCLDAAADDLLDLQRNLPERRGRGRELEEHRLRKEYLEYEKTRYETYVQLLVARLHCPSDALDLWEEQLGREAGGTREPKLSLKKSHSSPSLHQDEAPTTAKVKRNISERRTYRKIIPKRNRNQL
UniProt Q14671: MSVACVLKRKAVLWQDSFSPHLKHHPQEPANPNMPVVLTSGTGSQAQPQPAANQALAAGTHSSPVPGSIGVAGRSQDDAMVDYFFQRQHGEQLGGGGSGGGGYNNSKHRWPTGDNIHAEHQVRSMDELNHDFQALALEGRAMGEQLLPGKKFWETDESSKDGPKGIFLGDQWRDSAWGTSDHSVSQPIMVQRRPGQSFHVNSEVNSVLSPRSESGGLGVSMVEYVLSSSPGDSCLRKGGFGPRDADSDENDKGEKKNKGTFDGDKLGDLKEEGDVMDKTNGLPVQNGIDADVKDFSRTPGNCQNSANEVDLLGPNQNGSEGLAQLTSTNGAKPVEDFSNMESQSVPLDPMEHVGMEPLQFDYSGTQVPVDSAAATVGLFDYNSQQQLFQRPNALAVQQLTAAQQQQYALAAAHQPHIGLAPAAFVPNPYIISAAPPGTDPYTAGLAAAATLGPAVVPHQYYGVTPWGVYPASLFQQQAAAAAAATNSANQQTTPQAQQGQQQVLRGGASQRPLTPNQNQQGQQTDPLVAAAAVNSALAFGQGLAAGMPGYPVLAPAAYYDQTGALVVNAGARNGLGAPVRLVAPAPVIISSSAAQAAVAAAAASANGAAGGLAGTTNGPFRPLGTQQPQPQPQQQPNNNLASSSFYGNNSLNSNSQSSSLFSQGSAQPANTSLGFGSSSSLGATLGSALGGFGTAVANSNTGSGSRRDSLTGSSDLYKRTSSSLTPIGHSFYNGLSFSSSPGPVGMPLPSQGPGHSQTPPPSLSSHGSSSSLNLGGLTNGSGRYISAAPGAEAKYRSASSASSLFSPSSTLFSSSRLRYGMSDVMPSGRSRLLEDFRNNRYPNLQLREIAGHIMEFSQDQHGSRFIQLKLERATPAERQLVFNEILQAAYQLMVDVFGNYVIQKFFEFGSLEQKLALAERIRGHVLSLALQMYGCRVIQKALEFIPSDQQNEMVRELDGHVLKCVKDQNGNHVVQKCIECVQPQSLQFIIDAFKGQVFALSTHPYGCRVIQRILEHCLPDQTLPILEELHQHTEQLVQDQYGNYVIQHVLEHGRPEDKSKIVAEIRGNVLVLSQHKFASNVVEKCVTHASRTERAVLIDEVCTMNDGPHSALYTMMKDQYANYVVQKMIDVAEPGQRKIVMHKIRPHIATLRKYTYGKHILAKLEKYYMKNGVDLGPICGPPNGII

Tests used:
Assay in all cases: log2 fold change, soluble protein after heating vs DMSO (PISA); higher = thermal stabilisation; K562 cells, 10 uM, 30 min; active = over 0.2 and 3.5 SD of the protein, either way, in both replicates (recomputed)
[1] = compound: CC1=C(C=C(C=C1)NC(=O)C2=CC(=CC=C2)C(C)(C)C#N)NC3=CC4=C(C=C3)N=CN(C4=O)C
How it was run: (§1)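 Thermal stability values are relative to control samples and come from duplicates. They are expressed as log2 fold changes. For measurement, K562 cells (2×10^6 cells/mL) received 10 μM compound for 30 min, and aliquots were heated for 3 min over 48°C-58°C, pooled, and extracted at 4°C in PBS with 0.5% NP-40. Soluble protein, the supernatant after 21,000xg for 90 min, was quantified by TMTpro 16plex LC-MS/MS with equalised channel sums.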

[2] = compound: CC1=C(C=C(C=C1)NC(=O)C2=CC(=CC=C2)N(C)C)NC(=O)C3=CC=C(C=C3)O
How it was run: as §1

[3] = compound: CC1=CC=C(C=C1)SC2=C3C=C(SC3=CN=C2)C(=O)N
How it was run: as §1

[4] = compound: CC1=NC(=CC=C1)C2=C(N=C(N2)C(C)(C)C)C3=CC4=NC=CN=C4C=C3
How it was run: as §1

[5] = compound: CCCS(=O)(=O)Nc1ccc(F)c(C(=O)c2c[nH]c3ncc(-c4ccc(Cl)cc4)cc23)c1F [vemurafenib]
How it was run: as §1

[6] = compound: CCCS(=O)(=O)Nc1ccc(F)c(C(=O)c2c[nH]c3ncc(Cl)cc23)c1F
How it was run: as §1

[7] = compound: CCN(CC)Cc1ccc2cc(COC(=O)Nc3ccc(C(=O)NO)cc3)ccc2c1 [givinostat]
How it was run: as §1

[8] = compound: CC[C@@H]1C(=O)N(C)c2cnc(Nc3ccc(C(=O)N[C@H]4CC[C@H](N5CCN(CC6CC6)CC5)CC4)cc3OC)nc2N1C(C)C [volasertib]
How it was run: as §1

[9] = compound: CC[C@H](C)N1C=C(C2=C(C=C(C=C21)C3=CN=C(C=C3)N4CCNCC4)C(=O)NCC5=C(C=C(NC5=O)C)C)C
How it was run: as §1

[10] = compound: CCn1c(C(=O)N(C2CC2)C2CC2)cc2c3c(ncn3C)c(Nc3cc(C)n(C)n3)nc21
How it was run: as §1

[11] = compound: CCn1cc(-c2ccnc3[nH]c(-c4cccc(CN(C)C)c4)cc23)c(-c2ccc(NC(=O)N(C)C)cc2)n1
How it was run: as §1

[12] = compound: CN(C)CC(=O)Nc1ccc2[nH]c(=O)c3ccccc3c2c1
How it was run: as §1

[13] = compound: CN1CCC(CNc2ccc3ncc(-c4cccc(OC(F)(F)F)c4)n3n2)CC1
How it was run: as §1

[14] = compound: CCCCN(Cc1ccc(C(=O)NO)cc1)C(=O)Nc1ccccc1 [Nexturastat A]
How it was run: as §1

[15] = compound: CCCc1cc(C)[nH]c(=O)c1CNC(=O)c1cc(-c2ccnc(N3CCN(C)CC3)c2)cc2c1cnn2C(C)C
How it was run: as §1

[16] = compound: CCN(CCCOc1ccc2c(Nc3cc(CC(=O)Nc4cccc(F)c4)[nH]n3)ncnc2c1)CCOP(=O)(O)O [barasertib]
How it was run: as §1

[17] = compound: CC[C@@H]1C(=O)N(C)c2cnc(Nc3ccc(C(=O)NC4CCN(C)CC4)cc3OC)nc2N1C1CCCC1
How it was run: as §1

[18] = compound: CC[C@H](C)[C@@H](C(=O)N[C@@H]([C@@H](C)O)C(=O)N[C@@H](CC(C)C)C(=O)[C@]1(CO1)C)NC(=O)[C@H]([C@@H](C)CC)N(C)C(=O)C [epoxomicin]
How it was run: as §1

[19] = compound: CN1C2=C(C3=C1C(=O)N(N=C3)CC4=CC(=CC=C4)N)SC(=C2)S(=O)C
How it was run: as §1

[20] = compound: CN(CCOC1=CC=C(C=C1)C[C@H]2C(=O)NC(=O)S2)C3=CC=CC=N3 (racemic) [rosiglitazone]
How it was run: as §1

Measured: log2 fold change

R3HCC1 (UniProt Q9Y3T6)
inactive: [1] 0.114 | [2] 0.004 | [3] -0.02 | [4] -0.012 | [5] -0.107 | [6] 0.09 | [7] 0.064 | [8] -0.334 | [9] 0.137 | [10] 0.123 | [11] 0.114 | [12] 0.026 | [13] 0.056

PXK (UniProt Q7Z7A4)
inactive: [1] 0.017 | [2] -0.059 | [3] -0.041 | [4] 0.011 | [14] -0.018 | [5] 0.017 | [6] 0.071 | [15] -0.046 | [7] 0.022 | [16] 0.002 | [17] -0.136 | [8] -0.077 | [9] 0.04 | [18] 0.029 | [11] -0.012 | [12] 0.027 | [19] -0.028 | [13] -0.208

PSMB2, A0A087WVV1
inactive: [1] 0.033 | [2] 0.044 | [3] 0.015 | [4] 0.056 | [5] 0.112 | [6] 0.11 | [15] -0.375 | [7] -0.002 | [16] -0.149 | [17] -0.057 | [8] -0.011 | [9] -0.187 | [10] -0.328 | [11] 0.119 | [12] -0.102 | [20] 0.052 | [19] -0.084 | [13] 0.122

PTP4A2 (UniProt Q12974)
inactive: [1] 0.026 | [2] -0.045 | [3] 0.012 | [4] 0.076 | [14] -0.069 | [5] -0.002 | [6] -0.129 | [15] 0.02 | [7] -0.022 | [16] -0.006 | [17] 0.039 | [8] 0.083 | [9] 0.077 | [18] 0.153 | [12] -0.026 | [19] -0.003

PUS1 (UniProt Q9Y606)
inactive: [1] -0.164 | [2] 0.028 | [3] 0.024 | [4] 0.185 | [14] 0.235 | [5] 0.062 | [6] 0.132 | [7] 0.121 | [16] -0.043 | [17] -0.173 | [8] -0.131 | [18] -0.039 | [10] -0.136 | [11] -0.051 | [12] 0.016 | [20] 0.137 | [13] 0.037

PSMA3 (UniProt P25788)
inactive: [1] 0.01 | [2] 0.027 | [3] -0.025 | [4] 0.013 | [14] -0.039 | [5] -0.001 | [6] -0.019 | [15] -0.011 | [7] -0.011 | [16] -0.034 | [17] 0.067 | [8] 0.134 | [9] -0.025 | [18] -0.169 | [11] 0.002 | [12] -0.003 | [19] -0.027 | [13] 0.046

PTPN2 (UniProt P17706)
inactive: [1] 0.082 | [2] -0.07 | [3] -0.002 | [4] -0.02 | [14] 0.045 | [5] 0.076 | [6] 0.077 | [15] 0.048 | [7] 0.073 | [16] 0.131 | [17] -0.04 | [8] -0.07 | [18] 0.098 | [10] -0.106 | [11] -0.032 | [12] 0.031 | [20] 0.097 | [19] 0.05 | [13] -0.016

PSMD9 (UniProt O00233)
inactive: [1] -0.012 | [2] 0.018 | [3] 0.021 | [4] 0.012 | [14] -0.068 | [5] -0.014 | [6] -0.021 | [15] -0.016 | [7] -0.004 | [16] 0 | [17] -0.011 | [8] 0.086 | [9] 0.004 | [18] -0.04 | [11] -0.137 | [12] -0.01 | [19] -0.034 | [13] 0.127

Reprinted at random: 2 records from the list
PTP4A2 (UniProt Q12974)
inactive: [1] 0.026 | [2] -0.045 | [3] 0.012 | [4] 0.076 | [14] -0.069 | [5] -0.002 | [6] -0.129 | [15] 0.02 | [7] -0.022 | [16] -0.006 | [17] 0.039 | [8] 0.083 | [9] 0.077 | [18] 0.153 | [12] -0.026 | [19] -0.003

PSMA3 (UniProt P25788)
inactive: [1] 0.01 | [2] 0.027 | [3] -0.025 | [4] 0.013 | [14] -0.039 | [5] -0.001 | [6] -0.019 | [15] -0.011 | [7] -0.011 | [16] -0.034 | [17] 0.067 | [8] 0.134 | [9] -0.025 | [18] -0.169 | [11] 0.002 | [12] -0.003 | [19] -0.027 | [13] 0.046

The list continues.

PSD4 (UniProt Q8NDX1)
inactive: [1] -0.067 | [2] -0.189 | [4] -0.014 | [14] 0.061 | [5] -0.1 | [7] 0.189 | [17] 0.031 | [9] 0.079 | [18] -0.148 | [10] -0.086 | [12] -0.092 | [19] 0.292

PUM1 isoform 3 (UniProt Q14671)
active: [8] -0.302
inactive: [1] -0.011 | [2] 0.01 | [3] 0.011 | [4] 0.042 | [14] 0.06 | [5] 0.02 | [6] 0.05 | [15] 0.002 | [7] -0.03 | [16] 0.011 | [17] -0.075 | [9] 0.036 | [18] 0.023 | [11] -0.018 | [12] 0.015 | [19] 0.044 | [13] -0.123
